This passage reports binding results from article PMC9700324, “Selection-free endogenous tagging of cell lines by bicistronic co-expression of the surface antigen NGFR” (MethodsX, 2022).

Results are given in words; binding and its absence hold for the method and conditions named. Binding seen in cells or lysates may run through a third protein. Some entries that bind do so weakly or less than the wild type. Where a sequence is shown, tags or fusion partners need not be part of it.

Test [1] addresses T1, nLAP-tagged WDR59 (WD Repeat Domain 59), endogenously tagged (human (endogenous in HEK293T)) (UniProt Q6PJI9).
T1 sequence: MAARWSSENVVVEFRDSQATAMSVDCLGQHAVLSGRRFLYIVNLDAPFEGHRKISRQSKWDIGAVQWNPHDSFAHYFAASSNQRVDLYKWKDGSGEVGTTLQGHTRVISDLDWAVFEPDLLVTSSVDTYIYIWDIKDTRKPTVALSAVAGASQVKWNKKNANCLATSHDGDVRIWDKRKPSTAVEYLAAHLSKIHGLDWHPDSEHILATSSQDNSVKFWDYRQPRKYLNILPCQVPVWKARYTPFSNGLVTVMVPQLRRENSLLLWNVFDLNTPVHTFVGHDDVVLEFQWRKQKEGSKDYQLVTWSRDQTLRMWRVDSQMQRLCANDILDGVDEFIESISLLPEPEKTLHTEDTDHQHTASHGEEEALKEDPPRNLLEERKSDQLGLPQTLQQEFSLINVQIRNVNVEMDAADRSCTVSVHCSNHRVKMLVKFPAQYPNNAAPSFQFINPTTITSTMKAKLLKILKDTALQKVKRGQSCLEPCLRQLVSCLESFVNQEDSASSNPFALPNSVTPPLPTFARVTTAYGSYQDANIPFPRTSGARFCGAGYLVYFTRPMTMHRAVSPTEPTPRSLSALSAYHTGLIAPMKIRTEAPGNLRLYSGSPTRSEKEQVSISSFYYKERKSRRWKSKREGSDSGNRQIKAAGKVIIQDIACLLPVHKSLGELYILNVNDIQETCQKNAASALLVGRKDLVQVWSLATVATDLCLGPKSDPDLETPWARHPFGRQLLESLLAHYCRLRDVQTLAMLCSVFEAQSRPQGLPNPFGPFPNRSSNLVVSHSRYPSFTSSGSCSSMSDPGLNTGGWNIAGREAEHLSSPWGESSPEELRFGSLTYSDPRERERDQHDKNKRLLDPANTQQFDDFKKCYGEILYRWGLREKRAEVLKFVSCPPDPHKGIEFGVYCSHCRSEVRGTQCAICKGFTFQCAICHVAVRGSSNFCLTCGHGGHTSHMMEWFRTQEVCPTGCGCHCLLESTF
Put plainly: co-IP; nLAP-tagged WDR59 precipitated from 1,000-3,000 µg lysate protein with GFP-Trap magnetic agarose beads (GFP-specific nanobodies) overnight at 4°C; CoIP buffer (10 mM Tris-HCl pH 8, 150 mM NaCl, 5 mM EDTA, 0.5% Triton X-100, 60 mM octyl-β-D-glucopyranoside); 5 washes; partners detected by Western blot; cells untreated, amino acid-starved 16 h with or without 60 min stimulation with all amino acids or leucine, or leucine-starved with or without 60 min leucine. A general note: A western blot detects proteins with antibodies after separation by electrophoresis.

The target in test [2] is T2, nLAP-tagged WDR59 (WD Repeat Domain 59), endogenously tagged (human (endogenous in HEK293T)), Q6PJI9.
T2 chain: T1 sequence
The test can be described thus: co-IP; nLAP-tagged WDR59 precipitated from 1,000-3,000 µg lysate protein with GFP-Trap magnetic agarose beads (GFP-specific nanobodies) overnight at 4°C; CoIP buffer (10 mM Tris-HCl pH 8, 150 mM NaCl, 5 mM EDTA, 0.5% Triton X-100, 60 mM octyl-β-D-glucopyranoside); 5 washes; partners detected by Western blot; cells untreated, amino acid-starved 16 h with or without 60 min stimulation with all amino acids or leucine, …. The note with it: remark: other sources report otherwise.

B1: MIOS (Meiosis Regulator For Oocyte Development) (natural protein, human (endogenous in HEK293T), UniProt Q9NXC5 1-875, looked up)
chain: MSGTKPDILWAPHHVDRFVVCDSELSLYHVESTVNSELKAGSLRLSEDSAATLLSINSDTPYMKCVAWYLNYDPECLLAVGQANGRVVLTSLGQDHNSKFKDLIGKEFVPKHARQCNTLAWNPLDSNWLAAGLDKHRADFSVLIWDICSKYTPDIVPMEKVKLSAGETETTLLVTKPLYELGQNDACLSLCWLPRDQKLLLAGMHRNLAIFDLRNTSQKMFVNTKAVQGVTVDPYFHDRVASFYEGQVAIWDLRKFEKPVLTLTEQPKPLTKVAWCPTRTGLLATLTRDSNIIRLYDMQHTPTPIGDETEPTIIERSVQPCDNYIASFAWHPTSQNRMIVVTPNRTMSDFTVFERISLAWSPITSLMWACGRHLYECTEEENDNSLEKDIATKMRLRALSRYGLDTEQVWRNHILAGNEDPQLKSLWYTLHFMKQYTEDMDQKSPGNKGSLVYAGIKSIVKSSLGMVESSRHNWSGLDKQSDIQNLNEERILALQLCGWIKKGTDVDVGPFLNSLVQEGEWERAAAVALFNLDIRRAIQILNEGASSEKGDLNLNVVAMALSGYTDEKNSLWREMCSTLRLQLNNPYLCVMFAFLTSETGSYDGVLYENKVAVRDRVAFACKFLSDTQLNRYIEKLTNEMKEAGNLEGILLTGLTKDGVDLMESYVDRTGDVQTASYCMLQGSPLDVLKDERVQYWIENYRNLLDAWRFWHKRAEFDIHRSKLDPSSKPLAQVFVSCNFCGKSISYSCSAVPHQGRGFSQYGVSGSPTKSKVTSCPGCRKPLPRCALCLINMGTPVSSCPGGTKSDEKVDLSKDKKLAQFNNWFTWCHNCRHGGHAGHMLSWFRDHAECPVSACTCKCMQLDTTGNLVPAETVQP
notes: MIOS (Meiosis Regulator For Oocyte Development), subunit of GATOR2, human, endogenous; also called GATOR2 subunit MIOS; source: endogenous, HEK (Lenti-X 293T) spCas9+ WDR59-NGFRETD-nLAP clone D5 lysate
Turning to B1, the binding entry in test [1] was “binds”.

B2: NPRL3 (Nitrogen Permease Regulator 3-Like Protein), Q12980 1-569 (natural protein)
chain: MRDNTSPISVILVSSGSRGNKLLFRYPFQRSQEHPASQTSKPRSRYAASNTGDHADEQDGDSRFSDVILATILATKSEMCGQKFELKIDNVRFVGHPTLLQHALGQISKTDPSPKREAPTMILFNVVFALRANADPSVINCLHNLSRRIATVLQHEERRCQYLTREAKLILALQDEVSAMADGNEGPQSPFHHILPKCKLARDLKEAYDSLCTSGVVRLHINSWLEVSFCLPHKIHYAASSLIPPEAIERSLKAIRPYHALLLLSDEKSLLGELPIDCSPALVRVIKTTSAVKNLQQLAQDADLALLQVFQLAAHLVYWGKAIIIYPLCENNVYMLSPNASVCLYSPLAEQFSHQFPSHDLPSVLAKFSLPVSLSEFRNPLAPAVQETQLIQMVVWMLQRRLLIQLHTYVCLMASPSEEEPRPREDDVPFTARVGGRSLSTPNALSFGSPTSSDDMTLTSPSMDNSSAELLPSGDSPLNQRMTENLLASLSEHERAAILSVPAAQNPEDLRMFARLLHYFRGRHHLEEIMYNENTRRSQLLMLFDKFRSVLVVTTHEDPVIAVFQALLP
In the case of B2, in test [2], the binding entry is reported as “binds”.

B3: Sestrin-2 (SESN2) (natural protein, human (endogenous in HEK293T), UniProt P58004 1-480, looked up)
chain: MIVADSECRAELKDYLRFAPGGVGDSGPGEEQRESRARRGPRGPSAFIPVEEVLREGAESLEQHLGLEALMSSGRVDNLAVVMGLHPDYFTSFWRLHYLLLHTDGPLASSWRHYIAIMAAARHQCSYLVGSHMAEFLQTGGDPEWLLGLHRAPEKLRKLSEINKLLAHRPWLITKEHIQALLKTGEHTWSLAELIQALVLLTHCHSLSSFVFGCGILPEGDADGSPAPQAPTPPSEQSSPPSRDPLNNSGGFESARDVEALMERMQQLQESLLRDEGTSQEEMESRFELEKSESLLVTPSADILEPSPHPDMLCFVEDPTFGYEDFTRRGAQAPPTFRAQDYTWEDHGYSLIQRLYPEGGQLLDEKFQAAYSLTYNTIAMHSGVDTSVLRRAIWNYIHCVFGIRYDDYDYGEVNQLLERNLKVYIKTVACYPEKTTRRMYNLFWRHFRHSEKVHVNLLLLEARMQAALLYALRAITRYMT
notes: Sestrin-2 (SESN2), leucine-sensing protein, human, endogenous; source: endogenous, HEK (Lenti-X 293T) spCas9+ WDR59-NGFRETD-nLAP clone D5 lysate
For the molecule B3, the binding result in test [1] is listed as “binds”.
